The target of the assay is T7-GST-Varp-ANKR1 (ankyrin repeat domain 1 of Varp) (UniProt Q3UMR0). The assay can be described thus: pull-down; T7-GST-ANKR1 on glutathione-Sepharose beads incubated 1 h at 4 °C with lysates of WT or Hps4-KO B16-F1 cells (50 mM HEPES-KOH pH 7.2, 150 mM NaCl, 1 mM MgCl2, 1% Triton X-100); bound proteins detected by immunoblotting; only the target purified.

By UniProt entry, the sequences of proteins in these tests, tags left out. Where a name states a change or a piece, a line headed by the entry shows the natural chain unless it says otherwise.
UniProt Q3UMR0: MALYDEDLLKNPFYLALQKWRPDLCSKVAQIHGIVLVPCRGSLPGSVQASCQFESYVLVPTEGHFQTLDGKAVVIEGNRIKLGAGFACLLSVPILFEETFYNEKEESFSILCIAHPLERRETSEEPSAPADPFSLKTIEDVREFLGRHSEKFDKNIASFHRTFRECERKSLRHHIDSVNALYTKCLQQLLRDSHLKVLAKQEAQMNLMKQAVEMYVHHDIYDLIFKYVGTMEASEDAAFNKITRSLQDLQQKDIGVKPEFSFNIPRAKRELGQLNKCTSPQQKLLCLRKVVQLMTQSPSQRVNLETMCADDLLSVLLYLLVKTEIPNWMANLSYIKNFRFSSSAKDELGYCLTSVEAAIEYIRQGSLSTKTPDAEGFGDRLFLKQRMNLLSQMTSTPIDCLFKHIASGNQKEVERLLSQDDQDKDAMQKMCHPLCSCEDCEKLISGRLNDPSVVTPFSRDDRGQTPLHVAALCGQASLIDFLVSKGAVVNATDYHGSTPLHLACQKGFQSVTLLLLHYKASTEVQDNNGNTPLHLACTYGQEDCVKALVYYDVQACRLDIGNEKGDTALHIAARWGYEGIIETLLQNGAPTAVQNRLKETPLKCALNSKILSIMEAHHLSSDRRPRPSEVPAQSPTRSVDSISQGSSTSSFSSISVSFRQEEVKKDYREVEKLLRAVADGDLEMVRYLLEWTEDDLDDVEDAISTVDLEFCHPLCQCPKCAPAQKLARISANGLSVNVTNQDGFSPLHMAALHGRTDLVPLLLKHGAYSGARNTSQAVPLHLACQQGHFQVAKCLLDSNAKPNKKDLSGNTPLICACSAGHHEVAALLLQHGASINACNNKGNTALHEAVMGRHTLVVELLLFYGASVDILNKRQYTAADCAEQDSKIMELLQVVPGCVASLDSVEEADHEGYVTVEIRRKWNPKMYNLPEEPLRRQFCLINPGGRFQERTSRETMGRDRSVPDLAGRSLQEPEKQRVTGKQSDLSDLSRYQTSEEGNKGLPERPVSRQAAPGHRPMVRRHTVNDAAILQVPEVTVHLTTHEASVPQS

Results are given in words; binding and its absence hold for the method and conditions named. Binding seen in cells or lysates may run through a third protein. A result given as binding can be weak or reduced; the word gives no strength.

B1: Rab32 (endogenous, active GTP-bound form) (protein, UniProt Q9CZE3 1-223)
chain: MAGEGLGQQGASATAAPETREHLFKVLVIGELGVGKTSIIKRYVHQLFSQHYRATIGVDFALKVLNWDSRTLVRLQLWDIAGQERFGNMTRVYYKEALGAFVVFDISRSSTFDAVLKWKNDLDSKVHLPNGSPIPAVLLANKCDQKKDNSQSPSQMDQFCKDHGFTGWFETSAKDNINIDEATRFLVENMLANQQSFPSEEIDLDRIKLVEEPPTTKPRSQCC
Regarding B1, the binding result is “binds”.
